For assay [1], the target named is T1, Biotinylated MOG-35-55 peptide (Biot-…-OH) (murine sequence).
T1 chain: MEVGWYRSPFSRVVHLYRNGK
The assay can be described thus: peptide capture ELISA, time course. For orientation: An ELISA detects its analyte on a solid surface through an enzyme-linked reagent.

Assay [2] has as its target T1, Biotinylated MOG-35-55 peptide …. Briefly: peptide capture ELISA, saturation binding. To be noted: remark: other sources report otherwise.

No constants are given. Whether binding was seen depends on the method and setting. Some binding calls cover weakened binding; strength is not graded here.

B1: RTL302, Human HLA DR2 (DRB1*150101/DRA*0101) β1α1 domains (protein)
chain: MGDTRPRFLWQPKRECHFFNGTERVRFLDRYFYNQEESVRFDSDVGEFRAVTELGRPDAEYWNSQKDILEQARAAVDTYCRHNYGVVESFTVQRRVIKEEHVIIQAEFYLNPDQSGEFMFDFDGDEIFHVDMAKKETVWRLEEFGRFASFEAQGALANIAVDKANLEIMTKRSNYTPITN
modifications: here or on the partner: N-terminal biotin (Biot-); free C-terminus (-OH)
With B1, the binding entry in assay [1] and in assay [2] was “binds” in each case.
